Assay results from patent US20100021918A1, “METHOD FOR ASSAYING ACTION OF ANTITUMOR AGENT USING SPLICING DEFECTS AS INDEX” (Eisai R&D Management Co., Ltd., priority 2007, published 2010).
The source gives many values for each of these; only a part stands here.

Test system: human colon carcinoma cell strain WiDr
Assay: Microarray analysis (2), reviewed conditions, intron expression, Table 3
Format: cell-based
Experimental: WiDr cells were first suspended in RPMI1640 medium (containing 10% FBS, penicillin, and streptomycin) and seeded in a 10 cm dish (2×10^6 cells/dish). After an overnight culture in an incubator with 5% carbon dioxide gas at 37° C., the medium was changed with medium containing 14 nM of (8E,12E,14E)-7-((4-cycloheptylpiperazin-1-yl)carbonyl)oxy-3,6,16,21-tetrahydroxy-6,10,12,16,20-pentamethyl-18,19-epoxytricosa-8,12,14-trien-11-olide or containing vehicle alone. After cultured for additional six hours, TRI reagent (SIGMA) were added to the cells and the cells were harvested. RNA was purified in accordance with the protocol of TRI reagent, followed by further purification with RNeasy (QIAGEN). Absorbance at 260 nm was measured to quantify an amount of RNA. This experiment was repeated three times and RNA samples (n=3) were prepared.
Ribosomal RNA was removed from 1 μg of each total RNA of control cells (n=3) and cells with the treatment (n=3) by using RiboMinus Human/Mouse Transcriptome Isolation Kit (Invitrogen). Single stranded cDNA synthesis, double stranded cDNA synthesis, cRNA synthesis, second single stranded cDNA synthesis, cDNA fragmentation, and cDNA labeling in order were carried out for the total RNA from which ribosomal RNA was removed, by using GeneChip Whole Transcript Sense Target Labeling and Control Reagents (Affymetrix) to make a cDNA probe. The cDNA probe was used for hybridization with Human Exon 1.0 ST Array (Affymetrix). The array was washed and stained, and luminescence intensity was measured by a scanner.
Analysis conditions were reviewed in the data used in Example 3. Genes containing increased introns upon treatment with (8E,12E,14E)-7-((4-cycloheptylpiperazin-1-yl)carbonyl)oxy-3,6,16,21-tetrahydroxy-6,10,12,16,20-pentamethyl-18,19-epoxytricosa-8,12,14-trien-11-olide were identified.
In order to consider the analysis conditions, variations in the data from the samples with identical conditions were studied. […] It turned out that, by analyzing under conditions where the expression level was more than 100 and change in the expression level was more than five times, a probe set with increased expression can be extracted.
Probe sets showing that the normalized change in the level expression of the probe set in the group with the treatment was more than 5 times; the expression level of the probe set and the gene in the group with the treatment were more than 100; and probe set annotation was “extended, full, free”, were picked out. Welch's t-test was conducted with the probe sets extracted for the treated group and the control group to determine a p and q value. A gene containing the probe sets with the q value of less than 5% was determined as a candidate gene with increased expression level of the intron regions (Table 3).
In Table 3, for each gene evaluated, gene name (Gene Name), abbreviated name (Gene Symbol), accession number (Accession), alias name (Synonym), transcription cluster number in Human Exon 1.0 ST Array (Human Exon 1.0 ST Array Transcript Cluster ID), chromosome number (Chromosome), type of strand (Strand), start region (Start), stop region (Stop), and change in expression level (Fold Change) were respectively shown.

What does the source list for CCC(O)C(C)C1OC1CC(C)(O)/C=C/C=C(\C)C1OC(=O)CC(O)CCC(C)(O)C(OC(=O)N2CCN(C3CCCCCC3)CC2)/C=C/C1C (stereo not shown) [E7107, (8E,12E,14E)-7-((4-cycloheptylpiperazin-1-yl)carbonyl)oxy-3,6,16,21-tetrahydroxy-6,10,12,16,20-pentamethyl-18,19-epoxytricosa-8,12,14-trien-11-olide]?
Fold Change (gene C6orf111 // USP45, intron expression, treated vs control): 6.68; Fold Change (gene C6orf166, change in expression level, treated vs control): 19.23; Fold Change (gene C7orf30, intron expression, treated vs control): 7.46; Fold Change (gene C8orf53, intron expression, treated vs control): 6.60; Fold Change (gene C8orf76 // ZHX1, change in expression level, treated vs control): 12.17; Fold Change (gene C10orf18, change in expression level, treated vs control): 12.16; Fold Change (gene C11orf30, Transcript Cluster ID 3340913): 5.44; Fold Change (gene C12orf11, Transcript Cluster ID 3448428, intron expression, treated vs control): 10.50; Fold Change (gene C12orf41, intron expression, treated vs control): 7.00; Fold Change (gene C12orf52, change in expression level, treated vs control): 6.31; Fold Change (gene C14orf32, intron expression, treated vs control): 6.53; Fold Change (gene C14orf129, change in expression level, treated vs control): 6.35; Fold Change (gene C16orf72, intron expression, treated vs control): 7.28; Fold Change (gene C16orf80, Transcript Cluster ID 3693511, intron expression, treated vs control): 10.32; Fold Change (gene C18orf25, intron expression, treated vs control): 6.78; Fold Change (gene C19orf48, intron expression, treated vs control): 7.17; Fold Change (gene C20orf11, intron expression, treated vs control): 6.63; Fold Change (gene C20orf20, change in expression level, treated vs control): 6.49; Fold Change (gene C20orf24, Transcript Cluster ID 3883971, intron expression, treated vs control): 10.81; Fold Change (gene C20orf72, intron expression, treated vs control): 6.94; Fold Change (gene C20orf77, change in expression level, treated vs control): 10.91; Fold Change (gene CAB39, change in expression level, treated vs control): 13.97; Fold Change (gene CABLES1, change in expression level, treated vs control): 12.37; Fold Change (gene CALM2, change in expression level, treated vs control): 13.54; Fold Change (gene CAMSAP1, intron expression, treated vs control): 6.81; Fold Change (gene CAND1, change in expression level, treated vs control): 6.32; Fold Change (gene CANT1, change in expression level, treated vs control): 11.68; Fold Change (gene CAPN2, Transcript Cluster ID 2382117): 5.08; Fold Change (gene CASC3, intron expression, treated vs control): 6.82; Fold Change (gene CBFB, Transcript Cluster ID 3665116): 5.30; Fold Change (gene CCDC47, intron expression, treated vs control): 6.84; Fold Change (gene CCNB1, change in expression level, treated vs control): 11.03; Fold Change (gene CCND1, change in expression level, treated vs control): 10.91; Fold Change (gene CCNL1, Transcript Cluster ID 2702307, intron expression, treated vs control): 9.60; Fold Change (gene CCNL2 // AURKAIP1, Transcript Cluster ID 2391532 (chr1), intron expression, treated vs control): 8.96; Fold Change (gene CCNL2 // AURKAIP1, Transcript Cluster ID 4041923 (chr1_random), intron expression, treated vs control): 8.99; Fold Change (gene CCNT1, Transcript Cluster ID 3453218): 5.18; Fold Change (gene CCT2, intron expression, treated vs control): 6.62; Fold Change (gene CD59, intron expression, treated vs control): 6.65; Fold Change (gene CD151 // FKBP9L, Transcript Cluster ID 3316344): 5.23; Fold Change (gene CDC20, change in expression level, treated vs control): 18.22; Fold Change (gene CDCA2, Transcript Cluster ID 3090697): 5.28; Fold Change (gene CDCA4, change in expression level, treated vs control): 20.39; Fold Change (gene CDR2, Transcript Cluster ID 3684782): 5.42; Fold Change (gene CDYL, Transcript Cluster ID 2892979): 5.03; Fold Change (gene CENPL, Transcript Cluster ID 2444451, intron expression, treated vs control): 10.28; Fold Change (gene CEP72, Transcript Cluster ID 2798777): 5.43; Fold Change (gene CFL1, Transcript Cluster ID 3377886, intron expression, treated vs control): 9.72; Fold Change (gene CHD2, intron expression, treated vs control): 6.86; Fold Change (gene CHERP // CRSP7, Transcript Cluster ID 3853942): 5.06; Fold Change (gene CHMP4B, intron expression, treated vs control): 6.74; Fold Change (gene CIRH1A, Transcript Cluster ID 3666566, intron expression, treated vs control): 8.98; Fold Change (gene CKAP5, Transcript Cluster ID 3371719, intron expression, treated vs control): 9.90; Fold Change (gene CKS2, change in expression level, treated vs control): 6.01; Fold Change (gene CLINT1, change in expression level, treated vs control): 20.51; Fold Change (gene CMIP, Transcript Cluster ID 3670772): 5.42; Fold Change (gene CNBP, change in expression level, treated vs control): 16.43; Fold Change (gene COG1, intron expression, treated vs control): 6.58; Fold Change (gene COPS2, change in expression level, treated vs control): 12.73; Fold Change (gene COPS7B, change in expression level, treated vs control): 6.06; Fold Change (gene CORO1C, Transcript Cluster ID 3470549, intron expression, treated vs control): 10.27; Fold Change (gene COX4NB, change in expression level, treated vs control): 6.21; Fold Change (gene CSDA, intron expression, treated vs control): 6.51; Fold Change (gene CSDE1 // NRAS, change in expression level, treated vs control): 6.09; Fold Change (gene CSNK1D, intron expression, treated vs control): 6.62; Fold Change (gene CSTB, change in expression level, treated vs control): 6.28; Fold Change (gene CTDP1, intron expression, treated vs control): 6.54; Fold Change (gene CTDSPL2, change in expression level, treated vs control): 20.40; Fold Change (gene CTR9 // TRMU, change in expression level, treated vs control): 13.68; Fold Change (gene CUGBP1, intron expression, treated vs control): 6.83; Fold Change (gene CUL1, change in expression level, treated vs control): 6.41; Fold Change (gene CUL3, intron expression, treated vs control): 6.78; Fold Change (gene CXorf40A // CXorf40B, change in expression level, treated vs control): 6.08; Fold Change (gene CYP1B1, intron expression, treated vs control): 7.08; Fold Change (gene DCBLD2, intron expression, treated vs control): 7.42; Fold Change (gene DCP1A, change in expression level, treated vs control): 11.27; Fold Change (gene DCTN5, intron expression, treated vs control): 6.67; Fold Change (gene DCUN1D5, change in expression level, treated vs control): 11.81; Fold Change (gene DDEF1, intron expression, treated vs control): 6.85; Fold Change (gene DDEF2, change in expression level, treated vs control): 18.43; Fold Change (gene DDX3X, change in expression level, treated vs control): 14.39; Fold Change (gene DDX5, intron expression, treated vs control): 6.62; Fold Change (gene DDX10, change in expression level, treated vs control): 6.45; Fold Change (gene DDX21, change in expression level, treated vs control): 12.56; Fold Change (gene DDX27, Transcript Cluster ID 3888217, intron expression, treated vs control): 9.83; Fold Change (gene DDX31, change in expression level, treated vs control): 12.21; Fold Change (gene DDX42, Transcript Cluster ID 3730899, intron expression, treated vs control): 9.05; Fold Change (gene DDX47 // APOLD1, Transcript Cluster ID 3405531, intron expression, treated vs control): 9.51; Fold Change (gene DDX50, intron expression, treated vs control): 6.58; Fold Change (gene DHPS, Transcript Cluster ID 3851603): 5.37; Fold Change (gene DHX15, change in expression level, treated vs control): 6.22; Fold Change (gene DHX36, intron expression, treated vs control): 7.33; Fold Change (gene DIABLO, change in expression level, treated vs control): 11.73; Fold Change (gene DKC1, Transcript Cluster ID 3996667, intron expression, treated vs control): 9.04; Fold Change (gene DKK1, Transcript Cluster ID 3247172, intron expression, treated vs control): 10.89; Fold Change (gene DNAJA3, Transcript Cluster ID 3646164, intron expression, treated vs control): 9.23; Fold Change (gene DNAJA5, change in expression level, treated vs control): 6.03; Fold Change (gene DNAJB1, change in expression level, treated vs control): 10.94; Fold Change (gene DNAPTP6, change in expression level, treated vs control): 6.15; Fold Change (gene DNMBP, change in expression level, treated vs control): 6.28; Fold Change (gene DOT1L, Transcript Cluster ID 3816264, intron expression, treated vs control): 10.70; Fold Change (gene DULLARD, Transcript Cluster ID 3743501, intron expression, treated vs control): 10.70; Fold Change (gene DUS3L, Transcript Cluster ID 3847420, intron expression, treated vs control): 9.80
